A: 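Whole-cell assay for inhibitors of Mycobacterium tuberculosis growth, labelled Cornell in the record; the read-out is not stated. The concentration is filed as 10 mM, unlikely as a test dose, so the dose is not known. Higher means stronger inhibition (inferred from two other growth screens of the library). About 53,000 compounds were tested under these conditions; 1.7% (about 900) showed 50% or more at least once.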
B: 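Assay on Mycobacterium tuberculosis, filed only as a heat shock assay from Cornell; the read-out is not stated. The concentration is filed as 10 mM, unlikely as a test dose, so the dose is not known. The record gives no direction; compounds that gave an IC50 in retests scored well above the rest, so higher reads as stronger inhibition. Of about 69,000 compounds tested this way, about 930 (1.4%) reached 50% or more in at least one test.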

Results are given as percent effect.
The controls that fix the scale are not given in the record; negative values are as filed.
Compounds were drawn at random from those tested, without regard to their results.
A dash means the value is not listed here; it may have been measured.

| # | structure | A | B |
|---|---|---|---|
| 1 | `Cc1ccc(-c2nc(CN3CCOC(c4ccccc4)C3)cs2)o1` (centres undefined) | - | 29.99 |
| 2 | `Cn1cc(CN2CCCCC2c2ccc(-c3cccc(F)c3)nc2)cn1` (centres undefined) | 9.607 | -4.171 |
| 3 | `CCOc1c(F)cccc1C(=O)N(CC)C(C)c1ccncc1` (centres undefined) | - | -18.43 |
| 4 | `Cc1noc(C)c1CCC(=O)N1CCCN(CC(N)=O)CC1` | - | -19.74 |
| 5 | `CN(CCCC#N)C1CCCN(Cc2noc(C3CC3)n2)C1` (centres undefined) | 3.555 | -6.148 |
| 6 | `[H][C@@]12C[C@H](C)O[C@@]1([H])CCN(C(=O)COCC)C2` | -42.32 | 2.233 |
| 7 | `CSCCc1nc(C(C)C)nn1-c1ccncc1C` | 3.955 | 5.507 |
| 8 | `COCCC(=O)N[C@H]1CN(c2nc(C)c3c(n2)CCCC3)C[C@@H]1C1CC1` | 20.17 | -8.088 |
| 9 | `CS(=O)(=O)NCc1cc(-c2cc(F)cc(F)c2)nc(N2CCOCC2)n1` | 15.2 | -14.98 |
| 10 | `CC(=O)NC1Cc2ccc(S(=O)(=O)NCCNc3ccccn3)cc2C1` (centres undefined) | 8.819 | -0.07645 |
| 11 | `COc1cccc(C2C3=C(COC3=O)Nc3[nH]nc(C)c32)c1O` (centres undefined) | -49.1 | 15.88 |
| 12 | `O=C(O)c1cc(S(=O)(=O)Nc2ccccc2)cc2c1OCCO2` | -14.27 | 4.132 |
| 13 | `CCOc1cc(=O)n2c(c1C(=O)OCc1ccc(OC)cc1)CCCC2` | -1.812 | -3.738 |
| 14 | `Cc1cnc2c(S(=O)(=O)NC(=O)C(C)OCC3CC3)cccc2c1` (centres undefined) | 6.212 | 18.19 |
| 15 | `[H][C@@]12CCC(=O)N(CCNC)[C@]1([H])CCN(c1ncc(F)cn1)C2` | -1.028 | -2.845 |
| 16 | `Cc1c(C(=O)N2CC(=O)N(C)C2)nnn1-c1cccc2cccnc12` | -8.773 | -13.29 |
| 17 | `Cc1nc(CNCc2cccnc2Oc2ccc(C)c(F)c2F)c[nH]1` | - | 27.53 |
| 18 | `C1CN(CC2CCOCC2)Cc2c(CN3CCOCC3)nnn2C1` | -5.548 | -20.85 |
| 19 | `COCC1CN(C(=O)c2ccccn2)Cc2nccn2C1` (centres undefined) | 35.82 | -14.9 |
| 20 | `CN(C)CCNC(=O)c1ccc(OC2CCN(C(=O)CO)CC2)c(Cl)c1` | - | 15.59 |
| 21 | `O=C(O)C(F)(F)F.O=C(O)C(F)(F)F.[H][C@@]12CCN(Cc3cccnc3)[C@]1([H])CC[C@H](COCC1CC1)O2` | - | 1.802 |
| 22 | `Cc1ccc(S(=O)(=O)c2ncccc2CN2CCN(CCO)CC2)cc1` | -15.07 | -18.2 |
| 23 | `COc1ccc2c(c1)C(NCCc1c(C)noc1C)CCCO2` (centres undefined) | 2.778 | -14.67 |
| 24 | `Cc1cccc(NC2CCc3c2[nH]c(=O)n(C2CCCCC2)c3=O)c1C` (centres undefined) | 10.86 | -4.317 |
| 25 | `CN1CCN(Cc2cccc(NCc3cc[nH]n3)c2)CC1` | - | -12.18 |
| 26 | `CN(C)Cc1nnc(C(=O)N(C)Cc2ccc(C(F)(F)F)cc2)o1` | - | -9.502 |
| 27 | `CCN(CC)C1CCN(C(=O)NCc2cccc(NC(C)=O)c2)C1` (centres undefined) | 11.4 | 11.41 |
| 28 | `CCc1ccccc1CN1CC[C@@H](NC(=O)c2cccnc2)[C@H](O)C1` | -18.43 | 3.46 |
| 29 | `CN1CCC(N(C)C(=O)c2cnn(-c3ccccc3Br)c2N)CC1` | 4.11 | 37 |
| 30 | `CS(=O)(=O)N1CCCN(CCCSCc2ccccc2)CC1` | - | -21.91 |
| 31 | `c1cc(NCc2cscn2)cc(OCCN2CCCCC2)c1` | 23.02 | 1.029 |
| 32 | `CCN(CC)CCn1c(=O)oc2ccccc21.Cl` | 61.39 | 76.75 |
| 33 | `CCS(=O)(=O)N1CCc2ccc(NC(=O)Nc3ccccc3)cc21` | 24.03 | 18.56 |
| 34 | `c1ccc(C(CNc2ncccn2)N2CCOCC2)nc1` (centres undefined) | 26.39 | 5.503 |
| 35 | `CCN(CC)c1ccc(CNC(=O)c2cnc(C)cn2)cn1` | 13.64 | 3.251 |
| 36 | `CC(Cn1cccn1)NC(=O)N(C)Cc1ccsc1` (centres undefined) | 7.152 | 6.361 |
| 37 | `CNC(=O)c1ccc(NC(=O)NC(C)c2cc(C)oc2C)c(C)c1` (centres undefined) | 6.507 | 3.557 |

The first 3 entries again:

* Cc1ccc(-c2nc(CN3CCOC(c4ccccc4)C3)cs2)o1 (centres undefined) : B: 29.99%
* Cn1cc(CN2CCCCC2c2ccc(-c3cccc(F)c3)nc2)cn1 (centres undefined) : A: 9.607%; B: -4.171%
* CCOc1c(F)cccc1C(=O)N(CC)C(C)c1ccncc1 (centres undefined) : B: -18.43%

The values are deposited in ChEMBL (CHEMBL3988442, “University of Dundee, Small-Polar-MMV Screening Library” (2021)).